PubChem BioAssay AID1224828, NIAID | 2016
Screen: 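Knock-downs that increase or decrease LPS-induced p65 nuclear translocation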 (primary screen). System: mouse RAW264.7 G9 macrophage reporter cells (GFP-p65, Tnf promoter-mCherry). Reagents: siRNA pool against mouse genes, 100 nM. Timing: 2 days siRNA transfection, then 40 min LPS before fixation. Treatment: LPS (Salmonella minnesota R595) at 10 ng/ml. Read-out: 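Imaged p65 nuclear translocation ratio, normalised to the plate median, converted to robust z-scores and averaged across two replicates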. Direction: p65 translocation robust z-score: higher = more nuclear NF-kappaB p65 after LPS than the plate median; nuclear/cytoplasmic p65 ratio: higher = more nuclear NF-kappaB p65. Hit rule: 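Called active when z exceeds 3.3 or falls under -1.56 (median of Tlr4 controls), giving activity score of at least 50; no calls for control wells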. Meaning of the calls: active = hit (p65 shift raised or lowered); inactive = no clear change.
Here is a random part of about 17,000 reagents tested. Of all reagents, 762 (4.5%) are marked active. 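Active calls include both raised and lowered p65 entry, mostly lowered; wells with fewer than 50 cells lack a z-score.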 Raw values vary from plate to plate and are shown uncorrected.

| target | p65 translocation robust z-score | nuclear/cytoplasmic p65 ratio, rep 1 | nuclear/cytoplasmic p65 ratio, rep 2 | low cell count flag | Call |
| --- | --- | --- | --- | --- | --- |
| Ppfia4 (GeneID 68507) | -0.55 | 1.49 | 1.27 | enough cells to score | inactive |
| Fstl3 (GeneID 83554) | 0.34 | 1.46 | 1.43 | enough cells to score | inactive |
| Lrrc66 (GeneID 231296) | 0.21 | 1.63 | 1.85 | enough cells to score | inactive |
| Itpr2 (GeneID 16439) | 0.7 | 1.57 | 1.6 | enough cells to score | inactive |
| Srek1ip1 (GeneID 67288) | -1.02 | 1.16 | 1.2 | enough cells to score | inactive |
| Osm (GeneID 18413) | -0.05 | 1.49 | 1.36 | enough cells to score | inactive |
| Pcsk1n (GeneID 30052) | -0.05 | 1.17 | 1.24 | enough cells to score | inactive |
| Hspa9 (GeneID 15526) | -0.06 | 1.47 | 1.33 | enough cells to score | inactive |
| Flvcr1 (GeneID 226844) | -3.33 | 0.984 | 1.07 | enough cells to score | active |
| B3galt5 (GeneID 93961) | -1.59 | 1.35 | 1.3 | enough cells to score | active |
| Nmur2 (GeneID 216749) | -0.41 | 1.51 | 1.47 | enough cells to score | inactive |
| Onecut3 (GeneID 246086) | – | 1.54 | 0.972 | fewer than 50 cells per well; well left out of scoring | inactive |
| Ctsr (GeneID 56835) | -1.17 | 1.33 | 1.67 | enough cells to score | inactive |
| Myl9 (GeneID 98932) | 0.21 | 1.46 | 1.38 | enough cells to score | inactive |
| Atxn7l1 (GeneID 380753) | -0.49 | 1.2 | 1.23 | enough cells to score | inactive |
| Sncb (GeneID 104069) | -0.67 | 1.33 | 0.993 | enough cells to score | inactive |
| Cep112 (GeneID 76380) | – | 1.38 | 1.29 | fewer than 50 cells per well; well left out of scoring | inactive |
| Pilra (GeneID 231805) | – | 1.51 | 1.19 | fewer than 50 cells per well; well left out of scoring | inactive |
| Garre1 (GeneID 233103) | -0.04 | 1.26 | 1.3 | enough cells to score | inactive |
| Rarres1 (GeneID 109222) | -1.19 | 1.38 | 1.32 | enough cells to score | inactive |
| Kcnk12 (GeneID 210741) | 2.81 | 2 | 1.76 | enough cells to score | inactive |
| Aco1 (GeneID 11428) | -0.58 | 1.57 | 1.54 | enough cells to score | inactive |
| Rad17 (GeneID 19356) | 1.61 | 1.7 | 1.78 | enough cells to score | inactive |
| Ror1 (GeneID 26563) | -0.25 | 1.65 | 1.35 | enough cells to score | inactive |

A stretch from the list above:
| target | p65 translocation robust z-score | nuclear/cytoplasmic p65 ratio, rep 1 | nuclear/cytoplasmic p65 ratio, rep 2 | low cell count flag | Call |
| --- | --- | --- | --- | --- | --- |
| Ppfia4 (GeneID 68507) | -0.55 | 1.49 | 1.27 | enough cells to score | inactive |
| Fstl3 (GeneID 83554) | 0.34 | 1.46 | 1.43 | enough cells to score | inactive |
